Results as given in article PMC8384837.
Numbering of substitutions follows the chain as printed. The list shows a part of the results. For some of these results: At the low end of the ranking the order means little. For some of these results: The source does not settle which construct or isoform was used.

How the values were obtained:
Details in all cases: yeast three-hybrid, YBZ-1, SC-Leu-His + 0.5 mM 3-AT, 4 days
[1] = molecular target: T1, PUM1 PUF domain R2-VFQ R3-THE R4-TFR N899V + Y900F + C935T + R936H + Q939E + N971T + H972F + Q975R (UniProt Q14671)
T1 sequence: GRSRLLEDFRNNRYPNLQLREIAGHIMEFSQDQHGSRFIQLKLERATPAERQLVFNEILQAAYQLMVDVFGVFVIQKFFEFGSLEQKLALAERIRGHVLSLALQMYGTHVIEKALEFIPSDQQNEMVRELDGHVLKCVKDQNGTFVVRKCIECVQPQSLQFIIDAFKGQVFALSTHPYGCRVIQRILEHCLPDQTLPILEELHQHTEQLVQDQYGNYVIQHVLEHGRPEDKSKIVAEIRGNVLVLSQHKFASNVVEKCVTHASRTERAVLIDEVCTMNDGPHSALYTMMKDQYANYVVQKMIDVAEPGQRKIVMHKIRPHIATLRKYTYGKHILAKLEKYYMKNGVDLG

[2] = molecular target: T2, PUM1 PUF domain R3-THE R4-TFR C935T + R936H + Q939E + N971T + H972F + Q975R (UniProt Q14671)
T2 sequence: T1 sequence with V72N, F73Y

[3] = molecular target: T3, PUM1 PUF domain R3-THE R4-TFR R7-NPG C935T + R936H + Q939E + N971T + H972F + Q975R + S1079N + N1080P + E1083G (Homo sapiens) (UniProt Q14671)
T3 sequence: T1 sequence with V72N, F73Y, S252N, N253P, E256G

[4] = molecular target: T4, PUM1 PUF domain R6-SWD R7-NPG N1043S + Y1044W + Q1047D + S1079N + N1080P + E1083G (Homo sapiens) (UniProt Q14671)
T4 sequence: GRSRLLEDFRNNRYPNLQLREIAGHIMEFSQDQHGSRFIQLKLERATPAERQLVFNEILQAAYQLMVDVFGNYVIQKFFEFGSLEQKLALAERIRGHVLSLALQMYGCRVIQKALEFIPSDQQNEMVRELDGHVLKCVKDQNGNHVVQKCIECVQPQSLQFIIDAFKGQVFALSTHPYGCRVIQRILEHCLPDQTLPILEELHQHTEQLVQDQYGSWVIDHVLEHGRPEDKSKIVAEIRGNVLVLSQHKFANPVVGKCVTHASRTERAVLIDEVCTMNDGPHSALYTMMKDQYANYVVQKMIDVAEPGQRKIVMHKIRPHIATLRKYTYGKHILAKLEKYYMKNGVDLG

[5] = molecular target: T5, PUM1 PUF domain R5-PHQ R6-SWD C1007P + R1008H + N1043S + Y1044W + Q1047D (UniProt Q14671)
T5 sequence: T4 sequence with C180P, R181H, N252S, P253N, G256E

[6] = molecular target: T6, PUM1 PUF domain R3-THE R4-TFR R7-NPG C935T + R936H + Q939E + N971T + H972F + Q975R + S1079N + N1080P + E1083G (UniProt Q14671)
T6 sequence: T1 sequence with V72N, F73Y, S252N, N253P, E256G

[7] = molecular target: T7, PUM1 PUF domain R6-SWD R7-NPG N1043S + Y1044W + Q1047D + S1079N + N1080P + E1083G (UniProt Q14671)
T7 sequence: T4 sequence

## GGCUAGAACUAGUGGAUCCCCCGGCGCCCGGCGGCUCGAGCCCGGGUAAGUUUACCUCGUCUGCAUGCCGCCGGGCGCCAUGCCUGCAGGUCGACUCUAGAAAACAUG
[1]
  binding signal (log2 enrichment (interaction score)): -5.93
[2]
  binding signal (log2 enrichment (interaction score)): -7.87
[3]
  binding signal (log2 enrichment (interaction score)): < -0.86
[4]
  binding signal (log2 enrichment (interaction score)): -1.5

## GGCUAGAACUAGUGGAUCCCCCGGCGCCCGGCGGCUCGAGCCCGGGUAAGUAUAAGUUGUCUGCAUGCCGCCGGGCGCCAUGCCUGCAGGUCGACUCUAGAAAACAUG
[1]
  binding signal (log2 enrichment (interaction score)): -6.45
[2]
  binding signal (log2 enrichment (interaction score)): -6.58
[3]
  binding signal (log2 enrichment (interaction score)): -1.39
[5]
  binding signal (log2 enrichment (interaction score)): -7.48

## GGCUAGAACUAGUGGAUCCCCCGGCGCCCGGCGGCUCGAGCCCGGGUAAGUCGACAAAGUCUGCAUGCCGCCGGGCGCCAUGCCUGCAGGUCGACUCUAGAAAACAUG
[1]
  binding signal (log2 enrichment (interaction score)): -3.89
[2]
  binding signal (log2 enrichment (interaction score)): -7.47
[3]
  binding signal (log2 enrichment (interaction score)): -1.81
[5]
  binding signal (log2 enrichment (interaction score)): -7.24

## GGCUAGAACUAGUGGAUCCCCCGGCGCCCGGCGGCUCGAGCCCGGGUAAGUGUAGGGGGUCUGCAUGCCGCCGGGCGCCAUGCCUGCAGGUCGACUCUAGAAAACAUG
[1]
  binding signal (log2 enrichment (interaction score)): -5.32
[2]
  binding signal (log2 enrichment (interaction score)): -6.63
[6]
  binding signal (log2 enrichment (interaction score)): -2.24

## GGCUAGAACUAGUGGAUCCCCCGGCGCCCGGCGGCUCGAGCCCGGGUAAGUCUCCGUAGUCUGCAUGCCGCCGGGCGCCAUGCCUGCAGGUCGACUCUAGAAAACAUG
[1]
  binding signal (log2 enrichment (interaction score)): -4.74
[2]
  binding signal (log2 enrichment (interaction score)): -6.98
[3]
  binding signal (log2 enrichment (interaction score)): -1.92
[4]
  binding signal (log2 enrichment (interaction score)): -1.75

## GGCUAGAACUAGUGGAUCCCCCGGCGCCCGGCGGCUCGAGCCCGGGUAAGUAGAUAGAGUCUGCAUGCCGCCGGGCGCCAUGCCUGCAGGUCGACUCUAGAAAACAUG
[1]
  binding signal (log2 enrichment (interaction score)): -5.55
[2]
  binding signal (log2 enrichment (interaction score)): -6.95
[5]
  binding signal (log2 enrichment (interaction score)): -8.4

## GGCUAGAACUAGUGGAUCCCCCGGCGCCCGGCGGCUCGAGCCCGGGUAAGAUUACGGAGUCUGCAUGCCGCCGGGCGCCAUGCCUGCAGGUCGACUCUAGAAAACAUG
[1]
  binding signal (log2 enrichment (interaction score)): -5.71
[2]
  binding signal (log2 enrichment (interaction score)): -5.95
[3]
  binding signal (log2 enrichment (interaction score)): -1.03

## GGCUAGAACUAGUGGAUCCCCCGGCGCCCGGCGGCUCGAGCCCGGGUAAGUCAAGAAAGUCUGCAUGCCGCCGGGCGCCAUGCCUGCAGGUCGACUCUAGAAAACAUG
[1]
  binding signal (log2 enrichment (interaction score)): -5.36
[2]
  binding signal (log2 enrichment (interaction score)): -6.77
[3]
  binding signal (log2 enrichment (interaction score)): < -1.96
[5]
  binding signal (log2 enrichment (interaction score)): < -7.57
[7]
  binding signal (log2 enrichment (interaction score)): -2.8

## GGCUAGAACUAGUGGAUCCCCCGGCGCCCGGCGGCUCGAGCCCGGGUAAGAGGAUGCCGUCUGCAUGCCGCCGGGCGCCAUGCCUGCAGGUCGACUCUAGAAAACAUG
[1]
  binding signal (log2 enrichment (interaction score)): -5.9
[2]
  binding signal (log2 enrichment (interaction score)): -7.57
[3]
  binding signal (log2 enrichment (interaction score)): < -1.3
[5]
  binding signal (log2 enrichment (interaction score)): < -8.65

## GGCUAGAACUAGUGGAUCCCCCGGCGCCCGGCGGCUCGAGCCCGGGUAAGUUCAAGUUGUCUGCAUGCCGCCGGGCGCCAUGCCUGCAGGUCGACUCUAGAAAACAUG
[1]
  binding signal (log2 enrichment (interaction score)): -5.5
[2]
  binding signal (log2 enrichment (interaction score)): < -6.26
[5]
  binding signal (log2 enrichment (interaction score)): < -6.97
[4]
  binding signal (log2 enrichment (interaction score)): -0.26

## GGCUAGAACUAGUGGAUCCCCCGGCGCCCGGCGGCUCGAGCCCGGGUAAGACGAAGUAGUCUGCAUGCCGCCGGGCGCCAUGCCUGCAGGUCGACUCUAGAAAACAUG
[1]
  binding signal (log2 enrichment (interaction score)): -5.3
[2]
  binding signal (log2 enrichment (interaction score)): -6.64
[5]
  binding signal (log2 enrichment (interaction score)): -7.34

## GGCUAGAACUAGUGGAUCCCCCGGCGCCCGGCGGCUCGAGCCCGGGUAAGUUGAAGUUGUCUGCAUGCCGCCGGGCGCCAUGCCUGCAGGUCGACUCUAGAAAACAUG
[1]
  binding signal (log2 enrichment (interaction score)): < -5.84
[2]
  binding signal (log2 enrichment (interaction score)): -6.19
[5]
  binding signal (log2 enrichment (interaction score)): -9.14
[4]
  binding signal (log2 enrichment (interaction score)): -0.47

## GGCUAGAACUAGUGGAUCCCCCGGCGCCCGGCGGCUCGAGCCCGGGUAAGAUCAUUCAGUCUGCAUGCCGCCGGGCGCCAUGCCUGCAGGUCGACUCUAGAAAACAUG
[1]
  binding signal (log2 enrichment (interaction score)): -4.86
[3]
  binding signal (log2 enrichment (interaction score)): -1.26

## GGCUAGAACUAGUGGAUCCCCCGGCGCCCGGCGGCUCGAGCCCGGGUAAGUAGAUGUUGUCUGCAUGCCGCCGGGCGCCAUGCCUGCAGGUCGACUCUAGAAAACAUG
[1]
  binding signal (log2 enrichment (interaction score)): -5.57
[2]
  binding signal (log2 enrichment (interaction score)): < -7.57
[5]
  binding signal (log2 enrichment (interaction score)): < -7.1

## GGCUAGAACUAGUGGAUCCCCCGGCGCCCGGCGGCUCGAGCCCGGGUAAGUAGUCAUGGUCUGCAUGCCGCCGGGCGCCAUGCCUGCAGGUCGACUCUAGAAAACAUG
[1]
  binding signal (log2 enrichment (interaction score)): -5.59
[2]
  binding signal (log2 enrichment (interaction score)): -6.57
[5]
  binding signal (log2 enrichment (interaction score)): < -6.51

## GGCUAGAACUAGUGGAUCCCCCGGCGCCCGGCGGCUCGAGCCCGGGUAAGUUUAAGACGUCUGCAUGCCGCCGGGCGCCAUGCCUGCAGGUCGACUCUAGAAAACAUG
[1]
  binding signal (log2 enrichment (interaction score)): -5.43
[2]
  binding signal (log2 enrichment (interaction score)): -7.71
[4]
  binding signal (log2 enrichment (interaction score)): -1.23

## GGCUAGAACUAGUGGAUCCCCCGGCGCCCGGCGGCUCGAGCCCGGGUAAGUAGCAAUAGUCUGCAUGCCGCCGGGCGCCAUGCCUGCAGGUCGACUCUAGAAAACAUG
[1]
  binding signal (log2 enrichment (interaction score)): -5.29
[2]
  binding signal (log2 enrichment (interaction score)): -7.31
[4]
  binding signal (log2 enrichment (interaction score)): -1.45

## GGCUAGAACUAGUGGAUCCCCCGGCGCCCGGCGGCUCGAGCCCGGGUAAGUCAAAGUCGUCUGCAUGCCGCCGGGCGCCAUGCCUGCAGGUCGACUCUAGAAAACAUG
[1]
  binding signal (log2 enrichment (interaction score)): -4.93
[2]
  binding signal (log2 enrichment (interaction score)): -7.4
[5]
  binding signal (log2 enrichment (interaction score)): -7.37
[4]
  binding signal (log2 enrichment (interaction score)): -0.15

## GGCUAGAACUAGUGGAUCCCCCGGCGCCCGGCGGCUCGAGCCCGGGUAAGGUUAUCCAGUCUGCAUGCCGCCGGGCGCCAUGCCUGCAGGUCGACUCUAGAAAACAUG
[1]
  binding signal (log2 enrichment (interaction score)): -5.51
[2]
  binding signal (log2 enrichment (interaction score)): -6.75
[7]
  binding signal (log2 enrichment (interaction score)): -2.08

## GGCUAGAACUAGUGGAUCCCCCGGCGCCCGGCGGCUCGAGCCCGGGUAAGUGUACAAAGUCUGCAUGCCGCCGGGCGCCAUGCCUGCAGGUCGACUCUAGAAAACAUG
[1]
  binding signal (log2 enrichment (interaction score)): -2.63
[2]
  binding signal (log2 enrichment (interaction score)): -7.35
[5]
  binding signal (log2 enrichment (interaction score)): -8.17

## GGCUAGAACUAGUGGAUCCCCCGGCGCCCGGCGGCUCGAGCCCGGGUAAGUCGAGCUAGUCUGCAUGCCGCCGGGCGCCAUGCCUGCAGGUCGACUCUAGAAAACAUG
[1]
  binding signal (log2 enrichment (interaction score)): -3.69
[2]
  binding signal (log2 enrichment (interaction score)): < -4.27
[5]
  binding signal (log2 enrichment (interaction score)): < -6.93
[4]
  binding signal (log2 enrichment (interaction score)): -1.94

## GGCUAGAACUAGUGGAUCCCCCGGCGCCCGGCGGCUCGAGCCCGGGUAAGUAGACGCGGUCUGCAUGCCGCCGGGCGCCAUGCCUGCAGGUCGACUCUAGAAAACAUG
[1]
  binding signal (log2 enrichment (interaction score)): -4.92
[3]
  binding signal (log2 enrichment (interaction score)): -1.75

## GGCUAGAACUAGUGGAUCCCCCGGCGCCCGGCGGCUCGAGCCCGGGUAAGUUGAGUUUGUCUGCAUGCCGCCGGGCGCCAUGCCUGCAGGUCGACUCUAGAAAACAUG
[1]
  binding signal (log2 enrichment (interaction score)): -5.43
[3]
  binding signal (log2 enrichment (interaction score)): < -1.2

## GGCUAGAACUAGUGGAUCCCCCGGCGCCCGGCGGCUCGAGCCCGGGUAAGUGCUAAUAGUCUGCAUGCCGCCGGGCGCCAUGCCUGCAGGUCGACUCUAGAAAACAUG
[1]
  binding signal (log2 enrichment (interaction score)): -5.09
[2]
  binding signal (log2 enrichment (interaction score)): < -7.41
[5]
  binding signal (log2 enrichment (interaction score)): -8.26

## GGCUAGAACUAGUGGAUCCCCCGGCGCCCGGCGGCUCGAGCCCGGGUAAGCUUAAGACGUCUGCAUGCCGCCGGGCGCCAUGCCUGCAGGUCGACUCUAGAAAACAUG
[1]
  binding signal (log2 enrichment (interaction score)): -5.37
[2]
  binding signal (log2 enrichment (interaction score)): -6.7
[4]
  binding signal (log2 enrichment (interaction score)): -1.06

## GGCUAGAACUAGUGGAUCCCCCGGCGCCCGGCGGCUCGAGCCCGGGUAAGUGGACACGGUCUGCAUGCCGCCGGGCGCCAUGCCUGCAGGUCGACUCUAGAAAACAUG
[1]
  binding signal (log2 enrichment (interaction score)): -6.1
[3]
  binding signal (log2 enrichment (interaction score)): < -0.38
